PubChem BioAssay AID1259425, University of Nebraska Medical Center – 2018
Here is an unselected part of about 14,000 deposited reagents. Not all columns of the deposit are shown. Not stated in the record: the time to read-out.

Screen: 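Find knockdowns that reproduce the gene expression pattern seen when KSR1 is lost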 (primary screen)
Cells: HCT116 human colon cancer cells
Knock-down reagent: siRNA pool against human genes, 50 nM siRNA
Detection: 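mRNA of six signature genes measured together by branched-DNA assay after 50 nM siRNA pool, blank removed, divided by geometric mean of two housekeeping genes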
Reading the numbers: BNIP3L mRNA: higher = more BNIP3L transcript after knockdown

no.	target	BNIP3L mRNA, set 1
1	STAU1	0.215
2	TUBGCP6	0.0991
3	MOG	0.096
4	RUSC1	0.154
5	CDX1	0.129
6	AP3B2	0.172
7	GPR141	0.134
8	LYPLA1	0.128
9	ITGB4	0.0464
10	MCTP2	0.0908
11	MYO7B	0.0958

2 entries from above in another layout.
target | BNIP3L mRNA, set 1
LYPLA1 | 0.128
ITGB4 | 0.0464

Next results follow.
no.	target	BNIP3L mRNA, set 1
12	RPL31	0.541
13	SIAH1	0.0518
14	RASSF8	0.109
15	GPS2	0.0914
16	DENND4B	0.181
17	BECN1	0.0982
18	LMO2	0.129
19	ANKRD28	0.0593
20	MAP3K9	0.491
